# From patent US9227923B2, “Pesticidal carboxamides” (Bayer Intellectual Property GmbH, priority 2009, dated 2016)
# Some of these results come from one statement about several compounds together.
# What was measured:
# Ctenocephalides felis = format: in vivo; conditions: application rate of 100 ppm in cattle blood; after 2 days
# Description: (§1) Solvent: dimethyl sulfoxide
# Approximately 20 adult unfed (Ctenocepahlides felis) are placed in flea chambers. […] The blood chamber is heated to 37° C. whereas the flea chamber is kept at room temperature.
# [1] = test system: Lucilia cuprina 1st instar larvae; format: in vivo; conditions: application rate of 100 ppm; after 48 hrs
# Description: species: Lucilia cuprina 1st instar larvae (age 24 hrs)
# solvent: dimethyl sulfoxide
# Serial dilutions are made to obtain the desired rates. Approximately 20 Lucilia cuprina 1st instar larvae are transferred into a test tube containing 1 cm^3 of minced horse meat and 0.5 ml aqueous dilution of test compound. After 48 hrs percentage of larval mortality are recorded. 100% efficacy=all larvae are killed, […].
# Boophilus microplus = Boophilus microplus test (injection); format: in vivo; conditions: application rate of 20 μg/animal, after 7 days
# Description: as §1
# Five adult engorged female ticks (Boophilus microplus) are injected with […] compound solution into the abdomen. Ticks are transferred into replica plates and incubated in a climate chamber for a period of time. Egg deposition of fertile eggs is monitored.
# After 7 days mortality in % is determined. 100% means that all eggs are infertile; 0% means that all eggs are fertile. […]
# Musca domestica = conditions: application rate of 100 ppm; adults; after 2 days
# Description: as §1
# Prior to the assay, a piece of kitchen sponge is soaked with a mixture of sugar and compound solution and placed into a container. 10 adults (Musca domestica) are placed into the container and closed with a perforated lid. After 2 days mortality in % is determined 100% means that all the flies have been killed; 0% means that none of the flies have been killed.
compound,measurement,setting,value
CCc1cc(C(F)(C(F)(F)F)C(F)(F)F)cc(C)c1NC(=O)c1ccc(-n2cncn2)c2ccccc12 [Compound 2-2],activity (mortality in %),Ctenocephalides felis,90%
same,activity (percentage of larval mortality),[1],100%
same,activity (mortality in %; 100% means that all eggs are infertile),Boophilus microplus,100%
same,activity (mortality in %),Musca domestica,100%
CCc1cc(C(F)(C(F)(F)F)C(F)(F)F)cc(C)c1NC(=O)c1ccc(CNC(C)=O)c(Cl)c1 [Compound 5-77],activity (mortality in %),Ctenocephalides felis,100%
same,activity (percentage of larval mortality),[1],100%
same,activity (mortality in %),Musca domestica,80%
CCC(=O)NCc1ccc(C(=O)Nc2c(C)cc(C(F)(C(F)(F)F)C(F)(F)F)cc2CC)cc1Cl [Compound 5-78],activity (mortality in %),Ctenocephalides felis,100%
same,activity (percentage of larval mortality),[1],100%
same,activity (mortality in %; 100% means that all eggs are infertile),Boophilus microplus,100%
same,activity (mortality in %),Musca domestica,90%
CCc1cc(C(F)(C(F)(F)F)C(F)(F)F)cc(C)c1NC(=O)c1ccc(CNC(=O)CC(F)(F)F)c(Cl)c1 [Compound 5-81],activity (mortality in %),Ctenocephalides felis,100%
same,activity (percentage of larval mortality),[1],90%
same,activity (mortality in %; 100% means that all eggs are infertile),Boophilus microplus,100%
same,activity (mortality in %),Musca domestica,100%
CCc1cc(C(F)(C(F)(F)F)C(F)(F)F)cc(C)c1NC(=O)c1ccc(CNC(C)=O)c(Br)c1 [Compound 5-85],activity (mortality in %),Ctenocephalides felis,90%
same,activity (percentage of larval mortality),[1],100%
same,activity (mortality in %; 100% means that all eggs are infertile),Boophilus microplus,100%
same,activity (mortality in %),Musca domestica,100%
CCc1cc(C(F)(C(F)(F)F)C(F)(F)F)cc(C)c1NC(=O)c1ccc(CNC(=O)CC2CC2)c(Br)c1 [Compound 5-88],activity (mortality in %),Ctenocephalides felis,95%
same,activity (percentage of larval mortality),[1],80%
same,activity (mortality in %; 100% means that all eggs are infertile),Boophilus microplus,100%
same,activity (mortality in %),Musca domestica,80%
CCc1cc(C(F)(C(F)(F)F)C(F)(F)F)cc(C)c1NC(=O)c1ccc(CNC(=O)CC(F)(F)F)c(Br)c1 [Compound 5-89],activity (mortality in %),Ctenocephalides felis,95%
same,activity (percentage of larval mortality),[1],80%
same,activity (mortality in %; 100% means that all eggs are infertile),Boophilus microplus,100%
same,activity (mortality in %),Musca domestica,100%
CCc1cc(C(F)(C(F)(F)F)C(F)(F)F)cc(C)c1NC(=O)c1ccc(CNC(=O)COC)c(Br)c1 [Compound 5-91],activity (mortality in %),Ctenocephalides felis,95%
same,activity (percentage of larval mortality),[1],80%
same,activity (mortality in %; 100% means that all eggs are infertile),Boophilus microplus,100%
same,activity (mortality in %),Musca domestica,80%
CCc1cc(C(F)(C(F)(F)F)C(F)(F)F)cc(C)c1NC(=O)c1ccc(CNC(=O)CC(F)(F)F)c(C(F)(F)F)c1 [Compound 5-110],activity (percentage of larval mortality),[1],80%
same,activity (mortality in %; 100% means that all eggs are infertile),Boophilus microplus,100%
same,activity (mortality in %),Musca domestica,80%
CCC(=O)NCc1ccc(C(=O)Nc2c(C)cc(C(F)(C(F)(F)F)C(F)(F)C(F)(F)F)cc2C)cc1 (stereo not shown) [Compound 5-127],activity (mortality in %),Ctenocephalides felis,100%
same,activity (percentage of larval mortality),[1],80%
same,activity (mortality in %; 100% means that all eggs are infertile),Boophilus microplus,100%
same,activity (mortality in %),Musca domestica,90%
CCc1cc(C(F)(C(F)(F)F)C(F)(F)C(F)(F)F)cc(C)c1NC(=O)c1ccc(CNC(=O)C2CC2)c(F)c1 (stereo not shown) [Compound 5-146],activity (mortality in %),Ctenocephalides felis,100%
same,activity (mortality in %; 100% means that all eggs are infertile),Boophilus microplus,100%
same,activity (mortality in %),Musca domestica,80%
CCc1cc(C(F)(C(F)(F)F)C(F)(F)C(F)(F)F)cc(C)c1NC(=O)c1ccc(CNC(=O)CC(F)(F)F)c(F)c1 (stereo not shown) [Compound 5-148],activity (mortality in %),Ctenocephalides felis,100%
same,activity (percentage of larval mortality),[1],100%
same,activity (mortality in %; 100% means that all eggs are infertile),Boophilus microplus,100%
same,activity (mortality in %),Musca domestica,100%
CCc1cc(C(F)(C(F)(F)F)C(F)(F)C(F)(F)F)cc(C)c1NC(=O)c1ccc(CNC(C)=O)c(Cl)c1 (stereo not shown) [Compound 5-150],activity (mortality in %),Ctenocephalides felis,100%
same,activity (percentage of larval mortality),[1],100%
same,activity (mortality in %; 100% means that all eggs are infertile),Boophilus microplus,100%
same,activity (mortality in %),Musca domestica,100%
CCC(=O)NCc1ccc(C(=O)Nc2c(C)cc(C(F)(C(F)(F)F)C(F)(F)C(F)(F)F)cc2CC)cc1Cl (stereo not shown) [Compound 5-151],activity (mortality in %),Ctenocephalides felis,95%
same,activity (percentage of larval mortality),[1],100%
same,activity (mortality in %; 100% means that all eggs are infertile),Boophilus microplus,100%
same,activity (mortality in %),Musca domestica,100%
CCc1cc(C(F)(C(F)(F)F)C(F)(F)C(F)(F)F)cc(C)c1NC(=O)c1ccc(CNC(=O)C2CC2)c(Cl)c1 (stereo not shown) [Compound 5-152],activity (mortality in %),Ctenocephalides felis,95%
same,activity (percentage of larval mortality),[1],90%
same,activity (mortality in %; 100% means that all eggs are infertile),Boophilus microplus,100%
same,activity (mortality in %),Musca domestica,90%
CCc1cc(C(F)(C(F)(F)F)C(F)(F)C(F)(F)F)cc(C)c1NC(=O)c1ccc(CNC(=O)CC2CC2)c(Cl)c1 (stereo not shown) [Compound 5-153],activity (mortality in %),Ctenocephalides felis,100%
same,activity (percentage of larval mortality),[1],90%
same,activity (mortality in %; 100% means that all eggs are infertile),Boophilus microplus,100%
same,activity (mortality in %),Musca domestica,90%
CCc1cc(C(F)(C(F)(F)F)C(F)(F)C(F)(F)F)cc(C)c1NC(=O)c1ccc(CNC(=O)CC(F)(F)F)c(Cl)c1 (stereo not shown) [Compound 5-154],activity (mortality in %),Ctenocephalides felis,100%
same,activity (percentage of larval mortality),[1],100%
same,activity (mortality in %; 100% means that all eggs are infertile),Boophilus microplus,100%
same,activity (mortality in %),Musca domestica,100%
CCc1cc(C(F)(C(F)(F)F)C(F)(F)C(F)(F)F)cc(C)c1NC(=O)c1ccc(CNC(=O)c2cccnc2F)c(Cl)c1 (stereo not shown) [Compound 5-155],activity (mortality in %),Ctenocephalides felis,80%
same,activity (percentage of larval mortality),[1],100%
same,activity (mortality in %; 100% means that all eggs are infertile),Boophilus microplus,100%
same,activity (mortality in %),Musca domestica,80%
CCc1cc(C(F)(C(F)(F)F)C(F)(F)C(F)(F)F)cc(C)c1NC(=O)c1ccc(CNC(C)=O)c(Br)c1 (stereo not shown) [Compound 5-157],activity (mortality in %),Ctenocephalides felis,100%
same,activity (percentage of larval mortality),[1],100%
same,activity (mortality in %; 100% means that all eggs are infertile),Boophilus microplus,100%
same,activity (mortality in %),Musca domestica,100%
CCc1cc(C(F)(C(F)(F)F)C(F)(F)C(F)(F)F)cc(C)c1NC(=O)c1ccc(CNC(=O)CC(F)(F)F)c(Br)c1 (stereo not shown) [Compound 5-161],activity (mortality in %),Ctenocephalides felis,100%
same,activity (percentage of larval mortality),[1],100%
same,activity (mortality in %; 100% means that all eggs are infertile),Boophilus microplus,100%
same,activity (mortality in %),Musca domestica,100%
CCc1cc(C(F)(C(F)(F)F)C(F)(F)C(F)(F)F)cc(C)c1NC(=O)c1ccc(CNC(=O)c2cccnc2Cl)c(Br)c1 (stereo not shown) [Compound 5-175],activity (mortality in %),Ctenocephalides felis,95%
same,activity (mortality in %; 100% means that all eggs are infertile),Boophilus microplus,100%
same,activity (mortality in %),Musca domestica,100%
CCc1cc(C(F)(C(F)(F)F)C(F)(F)F)cc(C)c1NC(=O)c1ccc(CNC(=O)C[S+](C)[O-])c(Br)c1 (stereo not shown) [Compound 5-177],activity (mortality in %),Ctenocephalides felis,95%
same,activity (mortality in %; 100% means that all eggs are infertile),Boophilus microplus,100%
same,activity (mortality in %),Musca domestica,90%
CCc1cc(C(F)(C(F)(F)F)C(F)(F)F)cc(C)c1NC(=O)c1ccc(CNC(=O)CC(F)(F)F)c(I)c1 [Compound 5-192],activity (mortality in %),Ctenocephalides felis,95%
same,activity (mortality in %; 100% means that all eggs are infertile),Boophilus microplus,100%
same,activity (mortality in %),Musca domestica,100%
CCc1cc(C(F)(C(F)(F)F)C(F)(F)C(F)(F)F)cc(C)c1NC(=O)c1ccc(CNC(=O)CC(F)(F)F)c(I)c1 (stereo not shown) [Compound 5-198],activity (mortality in %),Ctenocephalides felis,95%
same,activity (percentage of larval mortality),[1],80%
same,activity (mortality in %; 100% means that all eggs are infertile),Boophilus microplus,100%
same,activity (mortality in %),Musca domestica,90%
CC(=O)NCc1ccc(C(=O)Nc2c(C)cc(C(F)(C(F)(F)F)C(F)(F)C(F)(F)F)cc2C)cc1Br (stereo not shown) [Compound 5-211],activity (mortality in %),Ctenocephalides felis,100%
same,activity (percentage of larval mortality),[1],100%
same,activity (mortality in %; 100% means that all eggs are infertile),Boophilus microplus,100%
same,activity (mortality in %),Musca domestica,100%
CCC(=O)NCc1ccc(C(=O)Nc2c(C)cc(C(F)(C(F)(F)F)C(F)(F)C(F)(F)F)cc2C)cc1Br (stereo not shown) [Compound 5-212],activity (mortality in %),Ctenocephalides felis,100%
same,activity (percentage of larval mortality),[1],100%
same,activity (mortality in %; 100% means that all eggs are infertile),Boophilus microplus,100%
same,activity (mortality in %),Musca domestica,100%
Cc1cc(C(F)(C(F)(F)F)C(F)(F)C(F)(F)F)cc(C)c1NC(=O)c1ccc(CNC(=O)CC(F)(F)F)c(F)c1F (stereo not shown) [Compound 5-213],activity (mortality in %),Ctenocephalides felis,100%
same,activity (percentage of larval mortality),[1],100%
same,activity (mortality in %; 100% means that all eggs are infertile),Boophilus microplus,100%
same,activity (mortality in %),Musca domestica,100%
CCc1cc(C(F)(C(F)(F)F)C(F)(F)Br)cc(C)c1NC(=O)c1ccc(CNC(C)=O)c(Cl)c1 (stereo not shown) [Compound 5-219],activity (mortality in %),Ctenocephalides felis,100%
same,activity (percentage of larval mortality),[1],100%
same,activity (mortality in %; 100% means that all eggs are infertile),Boophilus microplus,100%
same,activity (mortality in %),Musca domestica,100%
CCC(=O)NCc1ccc(C(=O)Nc2c(C)cc(C(F)(C(F)(F)F)C(F)(F)Br)cc2CC)cc1Cl (stereo not shown) [Compound 5-220],activity (mortality in %),Ctenocephalides felis,100%
same,activity (percentage of larval mortality),[1],100%
same,activity (mortality in %; 100% means that all eggs are infertile),Boophilus microplus,100%
same,activity (mortality in %),Musca domestica,90%
CCc1cc(C(F)(C(F)(F)F)C(F)(F)Br)cc(C)c1NC(=O)c1ccc(CNC(=O)CC(F)(F)F)c(Cl)c1 (stereo not shown) [Compound 5-221],activity (mortality in %),Ctenocephalides felis,95%
same,activity (percentage of larval mortality),[1],100%
same,activity (mortality in %; 100% means that all eggs are infertile),Boophilus microplus,100%
same,activity (mortality in %),Musca domestica,100%
CCC(=O)NC(C)c1ccc(C(=O)Nc2c(C)cc(C(F)(C(F)(F)F)C(F)(F)F)cc2CC)cc1 (stereo not shown) [Compound 9-3],activity (mortality in %),Ctenocephalides felis,95%
same,activity (percentage of larval mortality),[1],100%
same,activity (mortality in %; 100% means that all eggs are infertile),Boophilus microplus,100%
same,activity (mortality in %),Musca domestica,100%
